Hit rate of the full screen: of about 2,400 compounds, about 20 (0.8%) were called active. Inconclusive means that the source gave no clear call. Such entries were picked first, then a sample of the others.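 How the source made its calls: active means fitted half-maximal concentration for signal decrease at or below twice the top tested dose, in every repeat run; inconclusive means repeat runs disagree, or flat partial inhibition, or poor fit; inactive means all runs flat, wrong-direction or potency beyond limit.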
Assay: GFP reporter loss versus dox-driven RFP – NIH3T3 R4 cells, cherry-pick, set 4, dose response (AID 588827);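 further: 0% = neutral control wells and -100% = didemnin B at 400 nM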
Settings: NIH3T3 R4 HSF-1 GFP reporter, heat shock, 48 h; at 19.5 µM (top of the series) unless noted

Activity change, negative = inhibition, inconclusive:
CCCC(=O)N1CCN(c2ccc(NC(=O)c3cc4ccccc4o3)cc2Cl)CC1 -74.9%
CC1CCCN(CCCOc2ccc(Cl)cc2Br)C1 (stereo not drawn) 12.5%
CSc1ccc(CN(C)Cc2cc(=O)oc3c(C)c(C)ccc23)cc1 -48.7%
CCN1C/C(=C/c2ccc(OC)c(O)c2)C(=O)/C(=C/c2ccc(OC)c(O)c2)C1 -33.4%
Nc1c(NC(=O)CC[n+]2ccccc2)cccc1[N+](=O)[O-] -28.2%
COCC1CCCCN1C(=O)c1cc(COc2ccc3ncccc3c2)on1 (stereo not drawn) -46.3%
O=C(N/N=C/c1ccc[nH]1)c1ccc(COc2cccc3cccnc23)cc1 -42.1%
C(=N\Nc1ccc2ccccc2n1)/c1ccc2c(c1)OCCO2 -31.5%
CSc1ccccc1C(=O)N1CCN(c2ncccn2)CC1 12.7%
COc1ccc(C2CC23N=C(c2ccccc2)OC3=O)cc1 (stereo not drawn) -4.57%
Cc1ccc(C)c(C(=O)Nc2cc(C)nn2-c2nc(C)cc(C)n2)c1 64.8%
COc1ccc2oc(=O)c(N3C(=O)c4ccccc4C3=O)cc2c1 -15.4%
COC(=O)/C(=C1/Oc2cc(C)oc(=O)c2S1)C(F)(F)F -34.7%
CCC(=O)N1C(C(=O)N2CCCC2)CSC1c1ccc(OC)cc1 (stereo not drawn) 20.6%
O=C(Nc1ccc2c(c1)OCCO2)c1coc2ccccc2c1=O -11%
CCCCn1c(=O)[nH]c(=O)c2c1nc(Cn1ncc(Cl)c(Cl)c1=O)n2CCC -60.7%
CCOC(=O)c1sc2nc3c(cc2c1N)COC(C(C)C)C3 (stereo not drawn) 3.31%
COc1ccccc1NC(=O)c1nc(S(=O)(=O)Cc2ccccc2)ncc1Cl -38%
Cc1cccc(C(=O)NC(=S)N2CCN(c3ccc([N+](=O)[O-])cc3)CC2)c1 -14.4%
COc1ccc(Cn2nnnc2CN2CCc3ccccc3C2)cc1 -1.91%
CS(=O)(=O)c1nc(-c2ccccc2)cc(C(F)(F)F)n1 -59.9%
O=C1C(=O)c2ccc(-c3ccccc3)cc2-c2ccccc21 -37.6%
CC1(C)Cc2c(sc(NC(=O)c3ccc4ncsc4c3)c2C(N)=O)C(C)(C)N1 8.87%
O=C(NCc1ccccc1)N1CCC(CO)(Cc2cccc(F)c2)CC1 -17.2%
COC(=O)C1=CN(c2ccc(F)c(F)c2)C=C(C(=O)OC)C1c1ccc([N+](=O)[O-])cc1 -40.4%
CN(C)c1ccc(-c2noc(C3CCN(C(=O)Nc4ccc(Cl)cc4)CC3)n2)cc1 5.42%
Cc1ccc2nc(N3CCN(Cc4nnnn4Cc4ccccc4)CC3)c(C#N)cc2c1 -9.29%
c1cc2c(cc1C1CCCN1)OCCCO2 (stereo not drawn) -19.2%
CC(C)(C)C(=O)NC(=S)NNC(=O)c1sc2ccccc2c1Cl -18.5%
N#CCc1ccc(NC(=O)Nc2cccc3ccccc23)cc1 8.4%
CC1CCc2nc(N)c(C#N)c(-c3cccnc3)c2C1 (stereo not drawn) -55.8%
COc1ccc(NS(=O)(=O)c2ccc(-c3ccccn3)s2)cc1 -32.2%
Cc1cc(C)nc(/N=C(\N)Nc2ccc3c(c2)OCCO3)n1 -19.3%
CS(=O)(=O)N(CC(=O)O)c1ccc(C23CC4CC(CC(C4)C2)C3)cc1 7.89%
CC(/C=C(\NC(=O)c1ccccc1)C(=O)N=Nc1c(O)[nH]c2ccc(C)cc12)=C\c1ccccc1 -27%
CC(C)C[C@H](NC(=O)N1CCCCCC1)C(=O)O 17.1%
N#C/C(=C/c1cccc(C(F)(F)F)c1)c1nc(CCN2C(=O)c3ccccc3C2=O)cs1 -32.4%
N#C/C(=C\c1ccccn1)c1ccccn1 15.7%
Brc1ccc(C2=CC(c3ccco3)n3ncnc3N2)cc1 (stereo not drawn) -18.1%
Cc1ccc(C(C)C)c(OCc2ccc(C(=O)N/N=C/c3cccc(O)c3O)cc2)c1 -46.8%
O=C(CCl)Nc1ccc(Sc2ccc(NC(=O)CCl)cc2)cc1 -53.1%
COc1ccc(Nc2ncnc3ccc(Br)cc23)c(OC)c1 -36.9%
CCCn1c(N)c(C(=O)CSc2nc3ccccc3c(=O)n2Cc2ccccc2)c(=O)[nH]c1=O -26.8%
COC(=O)c1cn[nH]c1NC(=S)Nc1ccc(Cl)c(Cl)c1 -35.1%
CC(=O)[C@@]1(O)C(C)CC2C3C=C(C)C4=Cc5c(cnn5-c5ccccc5)C[C@]4(C)C3C(O)C[C@@]21C (stereo partly drawn) -18.3%
Nn1c(=O)c2ccccc2n2c(SCc3ccccc3)nnc12 -12.2%
Cc1ccc(-n2ncc(Br)c(Br)c2=O)cc1 -58.4%
O=C(O)c1ccc(CN2C(=O)c3cccc4c([N+](=O)[O-])ccc(c34)C2=O)cc1 -40.4%

Three compounds drawn at random from the list so far, as already listed:
Activity change, negative = inhibition, inconclusive:
CN(C)c1ccc(-c2noc(C3CCN(C(=O)Nc4ccc(Cl)cc4)CC3)n2)cc1 5.42%
O=C(N/N=C/c1ccc[nH]1)c1ccc(COc2cccc3cccnc23)cc1 -42.1%
CC1(C)Cc2c(sc(NC(=O)c3ccc4ncsc4c3)c2C(N)=O)C(C)(C)N1 8.87%

Following part.

Activity change, negative = inhibition, inactive:
COc1ccc(Cl)cc1C(=O)NCC(=O)OCc1ccccc1 8.73%
CCOc1c2ccc(C(=O)NCc3ccccc3OC)cc2nn1CC -2.38%
CCOc1cc(C#N)c(NC(=O)c2cccnc2Cl)cc1OCC -7.83%
COc1ccccc1C(=O)NCCC(=O)NNC(=O)Cn1ccc(C(F)(F)F)n1 -21.8%
O=C(O)CSCC(=O)Nc1ccc(C2CCCCC2)cc1 -19.7%
CCOC(=O)c1ccc(Nc2ncnc3nc[nH]c23)cc1 1.84%
Cc1ccc(-c2nn(-c3ccccc3)cc2CN(C)C(=O)CCC(=O)O)cc1C -15.5%
COc1ccc(S(=O)(=O)N2CCCCCC2)cc1C(=O)OCC(=O)NC(C)(C)C -11.8%
CCOC(=O)c1c(N)sc2c(O)c(Br)ccc12 -15.5%
O=C(NCCN1CCCCC1)Nc1ccccc1Cl -21.1%
Fc1ccc(CO/N=C/C2=C(Cl)c3ccccc3CC2)cc1 -14.4%
CCN(CC)c1ccc(CNc2nc3ccccc3n2CCN2CCOCC2)cc1 -31.2%
O=C(NCc1ccco1)C(=O)NCC(c1ccco1)N1CCOCC1 (stereo not drawn) -10.2%
CN1CCc2c(sc(/N=C/c3cc(C(C)(C)C)ccc3O)c2C#N)C1 3.37%
CCOc1ccc(N(CC(=O)NC2CCCCC2)C(=O)CCC(=O)Nc2nc(C)cs2)cc1 -1.1%
COc1ccc(C2NS(=O)(=O)N=C2N)cc1 (stereo not drawn) -1.94%
CC1CCCN(c2ncnc3c2cnn3-c2ccc(Cl)cc2)C1 (stereo not drawn) -10.3%
CC(C)c1ccc(NC(=O)N(CCc2nc3ccccc3[nH]2)C2CCCC2)cc1 78.7%
O=c1o[nH]c(-c2ccccc2)c1-c1ccccc1 5.38%
Nc1nc(CSC(=S)N2CCCCC2)nc(Nc2ccccc2)n1 -2.27%
Cc1nn(C(C)(C)C)c(C)c1/C=N/OC(=O)Nc1ccc(Cl)c(Cl)c1 -12.2%
Cc1cccc(OCC(=O)Nc2cccc(C(=O)NCC(C)C)c2)c1 -11.5%
COC(=O)c1cccc(NC(=O)CN2CCN(Cc3ccccc3)CC2)c1 2.65%
CCN(c1ccccc1)S(=O)(=O)c1cnc[nH]1 21.3%
Nc1ccccc1-c1nc2ccccc2s1 -7.02%
Cc1cc(C)c(N=C2SCC(=O)N2Cc2ccco2)c(C)c1 13.7%
Cc1ccc(N=Nc2ccc3ccccc3c2O)cc1 6.26%
Cc1ccccc1-c1nc2sc3c(c2c(=O)n1N)CCCC3 -10.4%
COc1ccc(NC(=S)Nc2ccc(C)c(S(=O)(=O)N3CCCCC3)c2)cc1 -33.6%
CC(=O)c1ccc(NC(=O)C2CCN(S(=O)(=O)c3cccc4cccnc34)CC2)cc1 -9.15%

— PubChem BioAssay AID588827 (Broad Institute, 2011)
